Molecules are shown by their SMILES. This is one part of the list. Potency and affinity values are given separately. Where no call is shown, the source marks the result inconclusive.

By UniProt entry, the sequences of proteins in these tests, tags left out. Where a name states a change or a piece, a line headed by the entry shows the natural chain unless it says otherwise.
UniProt P49840: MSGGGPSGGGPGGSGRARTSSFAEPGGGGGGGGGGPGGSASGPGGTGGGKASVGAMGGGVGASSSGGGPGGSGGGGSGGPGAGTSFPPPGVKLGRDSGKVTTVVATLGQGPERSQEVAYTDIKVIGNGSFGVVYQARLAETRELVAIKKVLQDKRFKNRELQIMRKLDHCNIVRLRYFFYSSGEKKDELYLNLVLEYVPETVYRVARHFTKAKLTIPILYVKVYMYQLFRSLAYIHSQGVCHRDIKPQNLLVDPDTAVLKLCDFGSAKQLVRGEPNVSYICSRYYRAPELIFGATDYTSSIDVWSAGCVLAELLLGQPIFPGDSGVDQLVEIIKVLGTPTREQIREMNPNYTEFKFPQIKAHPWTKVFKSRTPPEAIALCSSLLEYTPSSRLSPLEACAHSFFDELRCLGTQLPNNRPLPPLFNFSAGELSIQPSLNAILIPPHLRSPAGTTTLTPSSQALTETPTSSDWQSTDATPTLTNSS

This assay concerns the target Glycogen synthase kinase-3 alpha (Homo sapiens) (UniProt P49840). Put plainly: GSK3A kinase inhibitor dose-response confirmation, cell-free mobility-shift peptide conversion assay (AID 588361). As to conditions: GST-GSK3a, peptide conversion microfluidic mobility shift, 60 min; at 35 µM (top of the series).

With `Cc1ccc(-n2c(C)c([N+](=O)[O-])c3ccc(O)cc32)cc1`, the activity change, negative = inhibition was -50.1%.

These data come from PubChem BioAssay AID588361 (Broad Institute, 2011).
